Here are results for 1 molecule from article PMC12408856.

The experiment addresses T1, translocase of the inner mitochondrial membrane (TIMM) 8A (human (endogenous in A549)) (UniProt O60220).
T1 sequence: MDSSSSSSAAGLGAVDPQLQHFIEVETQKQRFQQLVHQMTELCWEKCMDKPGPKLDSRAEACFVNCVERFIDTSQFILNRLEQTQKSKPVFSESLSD
The experiment is described as follows: co-IP; endogenous proteins; 8 x 10^6 A549 cells lysed in RIPA buffer with protease inhibitor; antibodies at 4°C overnight; Protein A/G Agarose at 4°C about 4 h; three PBS washes; immunoblot. (In general: In western blotting, separated proteins are transferred to a membrane and probed.)

No constants are given. Whether binding was seen depends on the method and setting. In cells and extracts the contact can be indirect. Some entries that bind do so weakly or less than the wild type.

B1: translocase of the inner mitochondrial membrane 13 (protein, UniProt Q9Y5L4 1-95)
chain: MEGGFGSDFGGSGSGKLDPGLIMEQVKVQIAVANAQELLQRMTDKCFRKCIGKPGGSLDNSEQKCIAMCMDRYMDAWNTVSRAYNSRLQRERANM
Regarding B1, the binding entry is “binds”.
